# In paper PMC11177969, “Comprehensive Analyses of the Effects of the Small-Molecule Inhibitor of the UHM Domain in the Splicing Factor U2AF1 in Leukemia Cells” (Research Square, 2024):
# Some results come without the dose or concentration used. Some values come without a unit; they compare only within their column.
# Tested on: K562-U2AF1^S34F cells
# Experiment: RNA-seq experiment
# Assay type: cell-based
structure (smiles),measurement,setting,value
Cn1nc(C2(C)CCNCC2)cc1O [SF1–8],down-regulated genes in the top 99 differentially expressed genes,SF1–8 treated vs control,63
same,up-regulated genes in the top 99 differentially expressed genes,SF1–8 treated vs control,36
same,transcripts with significantly changed mRNA expression levels,after SF1–8 treatment,1034
